Reference: paper PMC12482102
Results are given in words; binding and its absence hold for the method and conditions named. In cells and extracts the contact can be indirect. Some binding calls cover weakened binding; strength is not graded here.

Protein sequences, listed by entry. Tags and fused reporters are not part of them.
UniProt P35222: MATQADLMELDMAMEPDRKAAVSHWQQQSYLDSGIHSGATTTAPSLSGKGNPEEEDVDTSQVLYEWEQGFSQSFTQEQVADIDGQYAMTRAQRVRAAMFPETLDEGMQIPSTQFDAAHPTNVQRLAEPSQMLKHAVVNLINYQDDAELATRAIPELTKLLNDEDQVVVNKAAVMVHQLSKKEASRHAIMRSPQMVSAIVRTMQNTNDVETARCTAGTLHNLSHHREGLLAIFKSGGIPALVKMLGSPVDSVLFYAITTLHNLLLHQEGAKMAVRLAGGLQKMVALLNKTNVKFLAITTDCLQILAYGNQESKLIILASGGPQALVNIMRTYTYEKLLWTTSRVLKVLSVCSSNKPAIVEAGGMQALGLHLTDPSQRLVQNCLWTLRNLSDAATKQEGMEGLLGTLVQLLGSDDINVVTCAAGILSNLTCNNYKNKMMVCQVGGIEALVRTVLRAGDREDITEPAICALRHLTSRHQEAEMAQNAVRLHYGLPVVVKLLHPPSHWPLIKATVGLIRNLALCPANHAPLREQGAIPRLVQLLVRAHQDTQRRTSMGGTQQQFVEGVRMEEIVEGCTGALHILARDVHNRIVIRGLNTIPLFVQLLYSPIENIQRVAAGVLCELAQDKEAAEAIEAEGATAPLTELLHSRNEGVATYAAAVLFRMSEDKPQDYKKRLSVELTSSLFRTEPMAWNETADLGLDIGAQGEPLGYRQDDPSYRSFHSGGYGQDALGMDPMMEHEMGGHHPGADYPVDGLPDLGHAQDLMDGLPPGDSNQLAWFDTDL

T1: PSPC1 (paraspeckle component 1) (human (endogenous in MIAPaCa-2)) (UniProt Q8WXF1)
T1 sequence: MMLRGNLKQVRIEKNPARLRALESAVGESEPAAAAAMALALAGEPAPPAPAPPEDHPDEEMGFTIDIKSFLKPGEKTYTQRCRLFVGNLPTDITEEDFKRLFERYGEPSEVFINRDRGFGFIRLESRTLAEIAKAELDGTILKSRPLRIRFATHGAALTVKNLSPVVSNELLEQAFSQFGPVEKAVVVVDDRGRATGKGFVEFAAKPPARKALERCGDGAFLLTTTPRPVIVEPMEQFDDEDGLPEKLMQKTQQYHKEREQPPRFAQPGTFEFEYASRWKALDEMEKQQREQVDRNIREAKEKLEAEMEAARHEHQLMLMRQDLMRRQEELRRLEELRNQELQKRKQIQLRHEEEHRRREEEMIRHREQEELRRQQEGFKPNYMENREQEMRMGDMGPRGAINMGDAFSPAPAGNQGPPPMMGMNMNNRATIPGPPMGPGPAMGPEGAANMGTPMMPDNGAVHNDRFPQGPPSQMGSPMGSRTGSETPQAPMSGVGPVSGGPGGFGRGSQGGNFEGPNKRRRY


Legend:
[1] = target: T1, PSPC1 (paraspeckle component 1) (human (endogenous in MIAPaCa-2)); experiment: co-IP; endogenous proteins; cells lysed in IP lysis buffer with proteinase inhibitor, lysate precleared, anti-PSPC1 or anti-β-catenin antibody overnight, A/G dynabeads 4 h at 4 °C, elution in Laemmli buffer, western blot; also done in CASC19 overexpressing cells
[2] = target: β-Catenin (human (endogenous in MIAPaCa-2)) (UniProt P35222); experiment: as above

binding [1] | binding [2] | Molecule
binds |  | β-Catenin (from UniProt P35222 1-781)
 | binds | PSPC1 (paraspeckle component 1) (protein, UniProt Q8WXF1 1-523) MMLRGNLKQVRIEKNPARLRALESAVGESEPAAAAAMALALAGEPAPPAPAPPEDHPDEEMGFTIDIKSFLKPGEKTYTQRCRLFVGNLPTDITEEDFKRLFERYGEPSEVFINRDRGFGFIRLESRTLAEIAKAELDGTILKSRPLRIRFATHGAALTVKNLSPVVSNELLEQAFSQFGPVEKAVVVVDDRGRATGKGFVEFAAKPPARKALERCGDGAFLLTTTPRPVIVEPMEQFDDEDGLPEKLMQKTQQYHKEREQPPRFAQPGTFEFEYASRWKALDEMEKQQREQVDRNIREAKEKLEAEMEAARHEHQLMLMRQDLMRRQEELRRLEELRNQELQKRKQIQLRHEEEHRRREEEMIRHREQEELRRQQEGFKPNYMENREQEMRMGDMGPRGAINMGDAFSPAPAGNQGPPPMMGMNMNNRATIPGPPMGPGPAMGPEGAANMGTPMMPDNGAVHNDRFPQGPPSQMGSPMGSRTGSETPQAPMSGVGPVSGGPGGFGRGSQGGNFEGPNKRRRY
